Data from publication PMC8851423.
No constants are given. Whether binding was seen depends on the method and setting. For part of these data: In cells and extracts the contact can be indirect. Some results given as binding are weak or reduced against the parent protein; the word gives no strength.

The chains behind the UniProt entries cited, without tags or fusion partners.
UniProt P16220: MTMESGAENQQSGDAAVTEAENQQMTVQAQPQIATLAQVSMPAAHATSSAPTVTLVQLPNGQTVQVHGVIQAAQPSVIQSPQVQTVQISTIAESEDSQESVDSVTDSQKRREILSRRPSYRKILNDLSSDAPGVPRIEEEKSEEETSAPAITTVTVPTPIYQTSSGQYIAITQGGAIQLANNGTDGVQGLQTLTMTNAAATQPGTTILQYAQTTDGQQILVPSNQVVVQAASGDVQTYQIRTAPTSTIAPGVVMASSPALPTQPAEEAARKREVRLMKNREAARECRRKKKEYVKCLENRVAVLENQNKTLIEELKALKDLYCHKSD
UniProt Q12824: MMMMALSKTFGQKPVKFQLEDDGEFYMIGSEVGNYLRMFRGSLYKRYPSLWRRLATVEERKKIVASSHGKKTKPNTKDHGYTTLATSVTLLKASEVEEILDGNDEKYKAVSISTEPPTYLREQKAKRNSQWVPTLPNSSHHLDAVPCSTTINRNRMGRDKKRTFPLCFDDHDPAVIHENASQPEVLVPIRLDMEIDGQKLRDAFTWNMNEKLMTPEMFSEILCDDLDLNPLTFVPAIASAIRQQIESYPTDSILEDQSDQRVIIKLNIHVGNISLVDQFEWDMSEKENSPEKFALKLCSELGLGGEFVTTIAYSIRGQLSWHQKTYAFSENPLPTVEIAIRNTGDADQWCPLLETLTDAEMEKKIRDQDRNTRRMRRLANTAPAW

Assays:
[1] = biological target: FLAG-tagged CREB1 (cAMP response element binding protein 1) (UniProt P16220); assay: co-IP; HEK293 cells co-transfected with FLAG-CREB1 and GFP-BAF47; whole cell lysates in RIPA buffer (50 mM Tris pH7.4, 150 mM NaCl, 1% Triton X-100); immunoprecipitation with anti-FLAG or anti-GFP, Protein A/G-plus agarose, Western blot
[2] = biological target: GFP-tagged BAF47 (Brg1-associated factor 47) (UniProt Q12824); assay: as above
[3] = biological target: CREB1 (endogenous, endothelial cells) (human (endogenous in EAhy926 and HAEC)) (UniProt P16220); assay: Re-ChIP (sequential chromatin immunoprecipitation); EAhy926 cells and HAECs with or without oxLDL (50 ug/ml, 24 h); 1% formaldehyde cross-linked, sonicated chromatin; first immune complexes eluted (1% SDS, 100 mM NaCO3) and precipitated with a second antibody; read-out: Neo-1 promoter DNA

## GFP-tagged BAF47 (Brg1-associated factor 47) (from UniProt Q12824 1-385)
[1]
  binding: binds

## FLAG-tagged CREB1 (cAMP response element binding protein 1) (from UniProt P16220 1-327)
[2]
  binding: binds

## BAF47 (endogenous, endothelial cells) (from UniProt Q12824 1-385)
[3]
  binding: binds
